Assay results from patent publication US20220177911.

Columns and labels:
Assay in all cases: activity in cells
Settings in all cases: minimal activation as monomer, CHO-K1; protein in cells; protein details: VP48, mCherry; only the site is given
[1] = tested on: T1, 42ZF R2A R39A R67A-VP48 (monomer) (synthetic)
T1 sequence: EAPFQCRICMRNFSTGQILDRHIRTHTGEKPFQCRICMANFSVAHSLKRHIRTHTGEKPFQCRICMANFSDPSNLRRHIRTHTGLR

[2] = tested on: T2, BCRZF R39A-VP48 (monomer) (synthetic)
T2 sequence: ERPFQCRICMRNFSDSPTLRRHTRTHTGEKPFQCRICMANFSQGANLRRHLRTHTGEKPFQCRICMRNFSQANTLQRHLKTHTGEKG

[3] = tested on: T3, 37ZF R2A R11A R39A R67A-VP48 (monomer) (synthetic)
T3 sequence: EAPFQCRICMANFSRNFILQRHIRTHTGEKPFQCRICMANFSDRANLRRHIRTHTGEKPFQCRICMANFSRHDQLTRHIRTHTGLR

**Q.** “GACGCTGCTGACGCTGCT (double strand) [42bs_42bs]” was tested. Which “activity on this sequence” value [1] did it give?
**A.** less active

**Q.** With “GCAGAAGCCGCAGAAGCC (double strand) [BCRbs_BCRbs]” as the sequence, how does the “activity on this sequence” value [2] read?
**A.** less active

**Q.** For “TGAGGACGTGTTGAGGACGTGT (double strand) [37bs_37bs]”, which “activity on this sequence” value [3] is on record?
**A.** less active

A weaker result is weaker than the reference pair of the same experiment. Tags and fusion partners may be left off the protein sequences shown.
